Data from paper PMC7496687.
These are yes or no findings as the source states them, for the method shown. Binding seen in cells or lysates may run through a third protein. Binding can be weak; no strength is given.

The chains behind the UniProt entries cited, without tags or fusion partners. Where a name states a change or a piece, a line headed by the entry shows the natural chain unless it says otherwise.
UniProt P70604: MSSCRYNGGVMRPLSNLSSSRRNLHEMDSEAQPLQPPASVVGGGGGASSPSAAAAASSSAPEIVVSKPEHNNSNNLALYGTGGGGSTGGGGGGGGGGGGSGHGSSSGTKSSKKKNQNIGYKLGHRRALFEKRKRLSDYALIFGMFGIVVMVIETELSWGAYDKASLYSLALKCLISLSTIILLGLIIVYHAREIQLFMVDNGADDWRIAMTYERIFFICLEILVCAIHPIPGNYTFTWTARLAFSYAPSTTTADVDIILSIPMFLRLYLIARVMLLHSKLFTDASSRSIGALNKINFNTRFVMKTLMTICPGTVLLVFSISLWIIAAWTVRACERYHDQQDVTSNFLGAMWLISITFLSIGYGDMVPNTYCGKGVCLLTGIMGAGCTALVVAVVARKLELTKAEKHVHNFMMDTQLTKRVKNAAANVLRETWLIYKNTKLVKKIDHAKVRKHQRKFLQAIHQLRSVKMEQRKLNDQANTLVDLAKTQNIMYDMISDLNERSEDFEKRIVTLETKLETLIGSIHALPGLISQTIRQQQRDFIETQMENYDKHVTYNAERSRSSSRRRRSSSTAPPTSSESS
UniProt P63331: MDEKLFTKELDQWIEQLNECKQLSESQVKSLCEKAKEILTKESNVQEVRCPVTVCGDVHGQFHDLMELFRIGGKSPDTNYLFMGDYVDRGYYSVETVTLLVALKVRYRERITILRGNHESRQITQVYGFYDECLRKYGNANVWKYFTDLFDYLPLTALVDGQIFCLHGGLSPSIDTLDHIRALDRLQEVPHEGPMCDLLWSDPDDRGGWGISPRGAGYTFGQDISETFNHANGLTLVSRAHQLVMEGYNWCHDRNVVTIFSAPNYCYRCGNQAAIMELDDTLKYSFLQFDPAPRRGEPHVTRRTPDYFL

Target: small-conductance Ca2+-activated K+ channel SK2 (rat (endogenous in rat ventricular myocytes)) (UniProt P70604)
Assay: co-IP; SK2 immunoprecipitated with anti-SK2 antibody (Sigma SAB2501396, 5 μg) from lysates of freshly isolated Sham and TAB rat ventricular myocytes, 2 h at 4°C, Catch and Release v2.0 Kit; normal mouse IgG as negative control; analysed by immunoblotting

With “protein phosphatase 2A C subunit (PP2A-C) (from UniProt P63331) (enzyme)” the binding was “binds”.
